The target of assay [1] is T1, ErbB2pY735 phosphopeptide, rhodamine-labelled (human).
T1 sequence (peptide, phosphotyrosine at position 5 (Tyr735); rhodamine on the N-terminus): FGTVYKGIWIPDD
Kind of assay: condition: protein to 10 uM; detection threshold KD 20 uM; fluorescence polarisation; saturation binding in solution: rhodamine peptide fixed at 10 nM, protein titrated 0.002-10 uM, 20 min at room temperature; assay buffer 20 mM HEPES, 100 mM KCl, 0.1% Tween-20, 5 mM DTT, pH 7.8; apparent KD; both purified. (In fluorescence polarisation assays a small probe gives low polarisation when free and higher when bound to something large.)

Protein sequences, listed by entry. Tags and fused reporters are not part of them. Residues count along the entry.
UniProt Q13882, residues 78-170: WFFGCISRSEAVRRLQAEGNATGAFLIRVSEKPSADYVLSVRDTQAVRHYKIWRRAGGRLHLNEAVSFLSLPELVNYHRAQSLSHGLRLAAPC
UniProt Q14451, residues 431-527: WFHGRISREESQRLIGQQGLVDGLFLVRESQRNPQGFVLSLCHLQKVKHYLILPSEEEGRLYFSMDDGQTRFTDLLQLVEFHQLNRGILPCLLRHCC

Assay [2] concerns the target T2, ErbB2pY1196 phosphopeptide, rhodamine-labelled (human).
T2 sequence (peptide, phosphotyrosine at position 5 (Tyr1196); rhodamine on the N-terminus): ENPEYLTPQGGAD
The description is as above.

These are yes or no findings as the source states them, for the method shown.

As for “SRC SH2 domain (from UniProt P12931-1 151-248) (domain or fragment)”, the binding result in assay [1] is recorded as “no binding”. For the substance “PTK6 SH2 domain (from UniProt Q13882 78-170) (domain or fragment)”, the binding entry in assay [1] is reported as “no binding”. With “GRB7 SH2 domain (from UniProt Q14451 431-527) (domain or fragment)”, the binding entry in assay [2] and in assay [1] was “no binding” in each case.
